{"source": "PubChem BioAssay AID268", "about": "(DTP/NCI, 2004)", "test_system": "CD2F1 mice, P1798 lymphosarcoma sc, tumor weight T/C", "assay": "NCI In Vivo Anticancer Drug Screen. Data for tumor model P1798 Lymphosarcoma (subcutaneous) in CD2F1 (CDF1) mice", "conditions": "T/C endpoint: mean tumor weight, schedule: Q01DX010 (ip), vehicle: saline, evaluation day not shown, higher T/C = larger tumour", "description": "The antitumor activity of compounds was measured in mice bearing transplantable tumors. Survival or tumor size were measured and the results are expressed as the measurement made in the treated group (T) divided by the measurement made in the vehicle treated control group (C). The tumor model used in this assay is P1798 Lymphosarcoma (subcutaneous) in CD2F1 (CDF1) mice", "note": "The list does not hold the whole screen: it gathers some chemical classes. Other doses and runs of a compound may be missing. T/C gives the treated animals as a percentage of the vehicle group. Some T/C values are marked as having no survivor count here; that says nothing about deaths at the dose. Schedules are NCI's codes, taken here to give the interval after Q, in days (D) or hours (H), and the number of doses after X.", "data": [{"smiles": "CN(CCCl)CCCl", "values": [{"measurement": "T/C", "setting": "dose: 0.13 mg/kg/injection", "result": "77 % of control [survivor count not shown]"}, {"measurement": "T/C", "setting": "dose: 0.25 mg/kg/injection", "result": "54 % of control [survivor count not shown]"}, {"measurement": "T/C", "setting": "dose: 0.5 mg/kg/injection", "result": "31 % of control [survivor count not shown]"}, {"measurement": "T/C", "setting": "dose: 62.5 micrograms/kg/injection", "result": "71 % of control [survivor count not shown]"}, {"measurement": "T/C", "setting": "dose: 125.0 micrograms/kg/injection", "result": "50 % of control [survivor count not shown]"}, {"measurement": "T/C", "setting": "dose: 250.0 micrograms/kg/injection", "result": "19 % of control [survivor count not shown]"}, {"measurement": "T/C", "setting": "dose: 500.0 micrograms/kg/injection", "result": "57 % of control [survivor count not shown]"}]}]}
